{"source": "patent US20240148820A1", "about": "(priority 2021, published 2024)", "key": {"A(H1N1) virus [1]": {"tested_on": "A(H1N1) virus", "settings": "TRBC, compared with neutralization antibody"}, "A(H5N1) pseudovirus": {"tested_on": "A(H5N1) pseudovirus", "format": "cell-based"}, "S protein of SARS-CoV-2": {"target": "S protein of SARS-CoV-2 (Severe acute respiratory syndrome coronavirus 2, UniProt P0DTC2)", "format": "binding"}, "A(H1N1) virus [2]": {"tested_on": "A(H1N1) virus", "format": "cell-based, A/Hong Kong/415742M/2009(H1N1)"}, "A(H7N7)-HA": {"tested_on": "A(H7N7)-HA", "format": "cell-based, A/Netherlands/219/2003(H7N7)", "settings": "pH 5"}, "[3]": {"target": "Spike of SARS-CoV-2 / ACE2-human (Severe acute respiratory syndrome coronavirus 2, UniProt P0DTC2)", "format": "cell-based, SARS-CoV-2 / human"}, "A(H1N1) virus [4]": {"tested_on": "A(H1N1) virus", "format": "binding", "settings": "capture EIA, bound viral RNA copies"}, "A(H1N1) virus [5]": {"tested_on": "A(H1N1) virus", "format": "cell-based, A/Hong Kong/415742M/2009(H1N1)", "remark": "listed apart in the source"}, "FluB virus": {"tested_on": "FluB virus", "format": "cell-based, influenza B/TW/70555/05(FluB)", "settings": "pH 5"}, "A(H1N1) virus [6]": {"tested_on": "A(H1N1) virus", "format": "cell-based", "settings": "virus pretreated 45 min, attached to MDCK cells 1 h"}, "A(H1N1) virus [7]": {"tested_on": "A(H1N1) virus", "format": "cell-based", "settings": "pH 5.0"}, "SARS-CoV-2 [8]": {"tested_on": "SARS-CoV-2", "settings": "in vivo"}, "A(H1N1)pdm09 virus": {"tested_on": "A(H1N1)pdm09 virus", "set-up": "species or system BALB/c mice", "settings": "mouse, in vivo"}, "SARS-CoV-2 [9]": {"tested_on": "SARS-CoV-2", "format": "cell-based"}, "[10]": {"tested_on": "endosomal acidification in MDCK cells", "experiment": "Endosomal acidification assay (pHrodo Red dextran)", "format": "cell-based, canine", "settings": "P16 25.0 μg ml^−1, MDCK cells"}, "SARS-CoV-2 [11]": {"tested_on": "SARS-CoV-2", "experiment": "SARS-CoV-2 replication in Calu-3 cells", "format": "cell-based"}, "FluB viruses": {"tested_on": "FluB viruses", "experiment": "Hemagglutination inhibition assay, FluB", "set-up": "species or system influenza B/TW/70555/05(FluB)", "settings": "TRBC, compared with neutralization antibody"}}, "note": "Entries after “also recorded” stand apart in the source; their conditions may differ. At least one peptide structure holds a part that was inferred or is arguable (an end, a ring closure or a residue). Where no end group is shown, it is not given here.", "data": [{"sequence": "RGAHIKGRWKSRCHRF [P16, RGAHIKGRWKSRCHRF]", "values": [{"measurement": "hemagglutination inhibition (HAI) activity against A(H1N1)", "setting": "A(H1N1) virus [1]", "value": "did not have hemagglutination inhibition (HAI) activity; also recorded: did not show HAI activity"}, {"measurement": "entry of A(H5N1) pseudovirus", "setting": "A(H5N1) pseudovirus", "value": "significantly inhibited the entry"}, {"measurement": "binding to S protein of SARS-CoV-2", "setting": "S protein of SARS-CoV-2", "value": "bound to S protein"}, {"measurement": "antiviral activity when cells treated before A(H1N1) infection", "setting": "A(H1N1) virus [2]", "value": "no antiviral activity was detected"}, {"measurement": "viral release in supernatants when treated after infection", "setting": "A(H1N1) virus [2]", "value": "did not inhibit"}, {"measurement": "viral replication in cells when treated after infection", "setting": "A(H1N1) virus [2]", "value": "did not inhibit"}, {"measurement": "viral replication when virus pretreated before infection", "setting": "A(H1N1) virus [2]", "value": "significantly inhibited viral replication"}, {"measurement": "A(H7N7)-HA mediated cell fusion triggered by low pH", "setting": "A(H7N7)-HA", "value": "blocked"}, {"measurement": "spike-ACE2 mediated cell fusion", "setting": "[3]", "value": "inhibited spike-ACE2 mediated cell fusion"}, {"measurement": "capture of viral particles by coated peptide", "setting": "A(H1N1) virus [4]", "value": "could not capture viral particles"}, {"measurement": "inhibition of viral replication in multicycle growth", "setting": "A(H1N1) virus [5]", "value": 41, "unit": "fold"}, {"measurement": "FluB virus mediated cell fusion triggered by low pH", "setting": "FluB virus", "value": "blocked"}, {"measurement": "viral attachment to cells (RNA copies of attached virus)", "setting": "A(H1N1) virus [6]", "value": "did not reduce viral attachment"}, {"measurement": "RBC hemolysis induced by A(H1N1) virus at low pH", "setting": "A(H1N1) virus [7]", "value": "significantly inhibited RBC hemolysis"}, {"measurement": "SARS-CoV-2 replication in hamster lungs (in words)", "setting": "SARS-CoV-2 [8]", "value": "inhibited SARS-CoV-2 replication"}, {"measurement": "inhibition of SARS-CoV-2 replication in hamster lungs", "setting": "SARS-CoV-2 [8]", "value": 14, "unit": "fold"}, {"measurement": "decrease of lung viral load", "setting": "A(H1N1)pdm09 virus", "value": 12, "unit": "fold"}, {"measurement": "improvement of survival of challenged mice", "setting": "A(H1N1)pdm09 virus", "value": 80, "unit": "%"}, {"measurement": "SARS-CoV-2 viral attachment", "setting": "SARS-CoV-2 [9]", "value": "did not significantly inhibit"}, {"measurement": "SARS-CoV-2 viral release", "setting": "SARS-CoV-2 [9]", "value": "did not significantly inhibit"}, {"measurement": "antiviral activity when SARS-CoV-2 pretreated", "setting": "SARS-CoV-2 [9]", "value": "mainly relied on targeting virus before viral entry"}, {"measurement": "antiviral activity when cells treated before or after SARS-CoV-2 infection", "setting": "SARS-CoV-2 [9]", "value": "not targeting cells"}, {"measurement": "endosomal acidification in live cells", "setting": "[10]", "value": "inhibited endosomal acidification"}, {"measurement": "SARS-CoV-2 replication in Calu-3 cells", "setting": "SARS-CoV-2 [11]", "value": "could not inhibit SARS-CoV-2 replication"}, {"measurement": "hemagglutination inhibition (HAI) activity against FluB", "setting": "FluB viruses", "value": "did not have hemagglutination inhibition (HAI) activity"}]}]}
